Assay results reported in article PMC2974636.
Read-outs that look alike come from different tables or passages of the source. Results are given in words; binding and its absence hold for the method and conditions named. In cells and extracts the contact can be indirect. Some binding calls cover weakened binding; strength is not graded here. Each block holds one molecule with its values, some of them ahead of it.

Amino acid sequences for entries named in this document (tags omitted).
UniProt O75923: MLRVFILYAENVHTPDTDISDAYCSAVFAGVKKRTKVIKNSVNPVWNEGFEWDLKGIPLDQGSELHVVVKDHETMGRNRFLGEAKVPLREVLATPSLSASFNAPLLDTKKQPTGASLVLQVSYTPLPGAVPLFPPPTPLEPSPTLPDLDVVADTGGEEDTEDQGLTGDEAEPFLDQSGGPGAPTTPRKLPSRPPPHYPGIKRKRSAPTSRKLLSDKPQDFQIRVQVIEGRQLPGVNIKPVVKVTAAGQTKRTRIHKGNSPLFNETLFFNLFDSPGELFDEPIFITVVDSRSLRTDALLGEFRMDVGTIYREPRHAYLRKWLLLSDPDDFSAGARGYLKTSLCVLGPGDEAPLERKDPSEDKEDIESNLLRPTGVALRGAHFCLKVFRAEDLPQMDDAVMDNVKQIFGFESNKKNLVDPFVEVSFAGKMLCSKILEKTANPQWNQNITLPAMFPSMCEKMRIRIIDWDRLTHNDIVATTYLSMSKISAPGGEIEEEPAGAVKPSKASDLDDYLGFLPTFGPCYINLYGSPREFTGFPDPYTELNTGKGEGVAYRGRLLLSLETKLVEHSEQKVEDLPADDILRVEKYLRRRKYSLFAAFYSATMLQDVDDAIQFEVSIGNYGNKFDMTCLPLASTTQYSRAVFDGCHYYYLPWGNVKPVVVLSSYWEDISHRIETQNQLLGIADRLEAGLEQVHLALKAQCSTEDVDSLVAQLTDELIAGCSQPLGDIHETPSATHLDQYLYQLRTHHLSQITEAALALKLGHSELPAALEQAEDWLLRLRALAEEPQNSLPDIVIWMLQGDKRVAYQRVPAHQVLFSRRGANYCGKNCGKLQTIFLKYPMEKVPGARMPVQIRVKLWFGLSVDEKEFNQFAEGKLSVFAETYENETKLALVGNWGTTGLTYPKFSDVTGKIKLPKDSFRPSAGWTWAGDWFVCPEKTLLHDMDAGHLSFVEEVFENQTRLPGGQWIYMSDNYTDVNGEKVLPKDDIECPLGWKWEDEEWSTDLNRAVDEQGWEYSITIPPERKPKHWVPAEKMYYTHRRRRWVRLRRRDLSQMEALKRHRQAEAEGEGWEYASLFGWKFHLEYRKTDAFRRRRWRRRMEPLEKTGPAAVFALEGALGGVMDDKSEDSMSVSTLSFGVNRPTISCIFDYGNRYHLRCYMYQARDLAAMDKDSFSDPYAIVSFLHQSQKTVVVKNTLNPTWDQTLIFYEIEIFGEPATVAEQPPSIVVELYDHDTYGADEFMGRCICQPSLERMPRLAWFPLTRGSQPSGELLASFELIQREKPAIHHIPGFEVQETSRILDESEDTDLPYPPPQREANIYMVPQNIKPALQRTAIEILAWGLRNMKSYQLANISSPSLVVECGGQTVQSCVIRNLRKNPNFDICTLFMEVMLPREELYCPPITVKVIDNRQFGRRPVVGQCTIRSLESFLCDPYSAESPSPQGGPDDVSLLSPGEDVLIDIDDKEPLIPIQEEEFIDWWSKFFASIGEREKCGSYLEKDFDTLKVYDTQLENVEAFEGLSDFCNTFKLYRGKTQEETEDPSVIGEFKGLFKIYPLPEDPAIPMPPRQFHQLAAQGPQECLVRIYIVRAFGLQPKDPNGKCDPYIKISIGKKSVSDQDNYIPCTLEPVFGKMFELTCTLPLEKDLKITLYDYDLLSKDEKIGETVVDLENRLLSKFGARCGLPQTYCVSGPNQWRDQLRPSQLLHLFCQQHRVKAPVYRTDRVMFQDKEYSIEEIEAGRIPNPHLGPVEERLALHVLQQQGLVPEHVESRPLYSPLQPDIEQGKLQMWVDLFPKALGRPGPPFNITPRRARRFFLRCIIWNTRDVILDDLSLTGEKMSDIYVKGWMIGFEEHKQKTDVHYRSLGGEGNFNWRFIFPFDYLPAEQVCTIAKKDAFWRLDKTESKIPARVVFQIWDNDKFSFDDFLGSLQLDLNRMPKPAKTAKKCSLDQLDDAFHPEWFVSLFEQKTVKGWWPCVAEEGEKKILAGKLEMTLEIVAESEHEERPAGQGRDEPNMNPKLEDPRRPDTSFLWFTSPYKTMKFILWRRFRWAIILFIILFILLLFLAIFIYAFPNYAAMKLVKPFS
UniProt Q9ESD7: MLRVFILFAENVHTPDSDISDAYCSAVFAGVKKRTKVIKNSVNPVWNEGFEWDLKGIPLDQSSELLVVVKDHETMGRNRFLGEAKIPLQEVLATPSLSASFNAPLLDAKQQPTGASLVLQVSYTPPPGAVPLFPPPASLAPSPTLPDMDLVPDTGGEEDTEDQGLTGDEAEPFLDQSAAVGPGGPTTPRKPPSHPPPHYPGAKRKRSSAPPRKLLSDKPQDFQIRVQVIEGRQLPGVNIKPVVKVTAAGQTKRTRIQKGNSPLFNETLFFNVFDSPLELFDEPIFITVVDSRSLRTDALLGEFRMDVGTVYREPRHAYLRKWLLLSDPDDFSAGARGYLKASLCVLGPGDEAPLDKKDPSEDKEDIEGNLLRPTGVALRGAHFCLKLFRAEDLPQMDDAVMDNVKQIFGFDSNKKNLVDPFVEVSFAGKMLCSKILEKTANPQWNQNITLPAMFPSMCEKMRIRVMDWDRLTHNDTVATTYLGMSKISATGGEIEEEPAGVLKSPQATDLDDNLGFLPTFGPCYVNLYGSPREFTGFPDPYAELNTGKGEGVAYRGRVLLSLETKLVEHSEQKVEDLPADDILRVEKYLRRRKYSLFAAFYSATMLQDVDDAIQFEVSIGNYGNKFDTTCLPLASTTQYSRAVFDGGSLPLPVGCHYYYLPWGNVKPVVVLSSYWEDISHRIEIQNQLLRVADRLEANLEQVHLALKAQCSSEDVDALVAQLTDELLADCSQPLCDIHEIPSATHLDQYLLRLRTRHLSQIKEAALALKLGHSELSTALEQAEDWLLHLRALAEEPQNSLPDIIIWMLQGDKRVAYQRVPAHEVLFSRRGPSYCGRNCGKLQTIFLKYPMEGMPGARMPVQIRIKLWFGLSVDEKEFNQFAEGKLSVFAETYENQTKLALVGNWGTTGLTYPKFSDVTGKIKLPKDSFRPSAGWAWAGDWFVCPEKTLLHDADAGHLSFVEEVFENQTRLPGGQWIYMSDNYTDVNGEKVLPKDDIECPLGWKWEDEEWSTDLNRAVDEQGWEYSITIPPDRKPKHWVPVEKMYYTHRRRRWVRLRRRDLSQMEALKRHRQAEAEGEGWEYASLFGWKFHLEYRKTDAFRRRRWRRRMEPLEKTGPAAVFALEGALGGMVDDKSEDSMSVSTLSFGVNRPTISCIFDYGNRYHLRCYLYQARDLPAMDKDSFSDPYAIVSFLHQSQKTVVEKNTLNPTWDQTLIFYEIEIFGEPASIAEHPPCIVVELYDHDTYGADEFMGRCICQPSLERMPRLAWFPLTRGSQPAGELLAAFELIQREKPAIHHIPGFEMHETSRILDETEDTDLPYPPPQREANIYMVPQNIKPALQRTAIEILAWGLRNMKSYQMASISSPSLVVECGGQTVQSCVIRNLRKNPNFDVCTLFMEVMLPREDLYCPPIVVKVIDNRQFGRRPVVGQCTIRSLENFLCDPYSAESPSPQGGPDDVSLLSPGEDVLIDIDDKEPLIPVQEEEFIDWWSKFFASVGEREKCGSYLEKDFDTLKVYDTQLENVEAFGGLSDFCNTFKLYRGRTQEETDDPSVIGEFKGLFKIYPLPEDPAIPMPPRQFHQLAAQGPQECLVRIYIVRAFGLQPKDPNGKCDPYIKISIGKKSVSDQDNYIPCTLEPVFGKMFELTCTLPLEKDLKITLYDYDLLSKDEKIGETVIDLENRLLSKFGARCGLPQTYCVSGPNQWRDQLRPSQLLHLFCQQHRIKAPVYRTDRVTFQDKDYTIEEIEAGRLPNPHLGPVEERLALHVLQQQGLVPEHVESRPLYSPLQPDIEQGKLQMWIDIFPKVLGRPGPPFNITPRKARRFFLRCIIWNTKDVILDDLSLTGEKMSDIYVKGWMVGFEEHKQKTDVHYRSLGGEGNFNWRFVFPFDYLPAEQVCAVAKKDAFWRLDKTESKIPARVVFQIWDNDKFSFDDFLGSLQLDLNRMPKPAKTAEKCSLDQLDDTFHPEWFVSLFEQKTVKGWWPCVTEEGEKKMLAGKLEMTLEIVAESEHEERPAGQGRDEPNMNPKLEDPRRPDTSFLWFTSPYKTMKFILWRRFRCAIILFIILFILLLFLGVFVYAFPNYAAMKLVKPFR
UniProt P07356: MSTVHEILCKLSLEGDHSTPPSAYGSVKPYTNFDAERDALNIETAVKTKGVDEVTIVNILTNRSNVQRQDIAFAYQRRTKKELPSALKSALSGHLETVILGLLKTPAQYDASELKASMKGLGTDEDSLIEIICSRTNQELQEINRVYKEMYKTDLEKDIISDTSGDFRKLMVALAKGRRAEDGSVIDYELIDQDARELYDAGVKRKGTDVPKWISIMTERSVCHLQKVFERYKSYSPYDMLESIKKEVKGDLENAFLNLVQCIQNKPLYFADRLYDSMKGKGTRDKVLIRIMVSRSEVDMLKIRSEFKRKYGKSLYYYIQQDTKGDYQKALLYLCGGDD
UniProt Q69ZN7: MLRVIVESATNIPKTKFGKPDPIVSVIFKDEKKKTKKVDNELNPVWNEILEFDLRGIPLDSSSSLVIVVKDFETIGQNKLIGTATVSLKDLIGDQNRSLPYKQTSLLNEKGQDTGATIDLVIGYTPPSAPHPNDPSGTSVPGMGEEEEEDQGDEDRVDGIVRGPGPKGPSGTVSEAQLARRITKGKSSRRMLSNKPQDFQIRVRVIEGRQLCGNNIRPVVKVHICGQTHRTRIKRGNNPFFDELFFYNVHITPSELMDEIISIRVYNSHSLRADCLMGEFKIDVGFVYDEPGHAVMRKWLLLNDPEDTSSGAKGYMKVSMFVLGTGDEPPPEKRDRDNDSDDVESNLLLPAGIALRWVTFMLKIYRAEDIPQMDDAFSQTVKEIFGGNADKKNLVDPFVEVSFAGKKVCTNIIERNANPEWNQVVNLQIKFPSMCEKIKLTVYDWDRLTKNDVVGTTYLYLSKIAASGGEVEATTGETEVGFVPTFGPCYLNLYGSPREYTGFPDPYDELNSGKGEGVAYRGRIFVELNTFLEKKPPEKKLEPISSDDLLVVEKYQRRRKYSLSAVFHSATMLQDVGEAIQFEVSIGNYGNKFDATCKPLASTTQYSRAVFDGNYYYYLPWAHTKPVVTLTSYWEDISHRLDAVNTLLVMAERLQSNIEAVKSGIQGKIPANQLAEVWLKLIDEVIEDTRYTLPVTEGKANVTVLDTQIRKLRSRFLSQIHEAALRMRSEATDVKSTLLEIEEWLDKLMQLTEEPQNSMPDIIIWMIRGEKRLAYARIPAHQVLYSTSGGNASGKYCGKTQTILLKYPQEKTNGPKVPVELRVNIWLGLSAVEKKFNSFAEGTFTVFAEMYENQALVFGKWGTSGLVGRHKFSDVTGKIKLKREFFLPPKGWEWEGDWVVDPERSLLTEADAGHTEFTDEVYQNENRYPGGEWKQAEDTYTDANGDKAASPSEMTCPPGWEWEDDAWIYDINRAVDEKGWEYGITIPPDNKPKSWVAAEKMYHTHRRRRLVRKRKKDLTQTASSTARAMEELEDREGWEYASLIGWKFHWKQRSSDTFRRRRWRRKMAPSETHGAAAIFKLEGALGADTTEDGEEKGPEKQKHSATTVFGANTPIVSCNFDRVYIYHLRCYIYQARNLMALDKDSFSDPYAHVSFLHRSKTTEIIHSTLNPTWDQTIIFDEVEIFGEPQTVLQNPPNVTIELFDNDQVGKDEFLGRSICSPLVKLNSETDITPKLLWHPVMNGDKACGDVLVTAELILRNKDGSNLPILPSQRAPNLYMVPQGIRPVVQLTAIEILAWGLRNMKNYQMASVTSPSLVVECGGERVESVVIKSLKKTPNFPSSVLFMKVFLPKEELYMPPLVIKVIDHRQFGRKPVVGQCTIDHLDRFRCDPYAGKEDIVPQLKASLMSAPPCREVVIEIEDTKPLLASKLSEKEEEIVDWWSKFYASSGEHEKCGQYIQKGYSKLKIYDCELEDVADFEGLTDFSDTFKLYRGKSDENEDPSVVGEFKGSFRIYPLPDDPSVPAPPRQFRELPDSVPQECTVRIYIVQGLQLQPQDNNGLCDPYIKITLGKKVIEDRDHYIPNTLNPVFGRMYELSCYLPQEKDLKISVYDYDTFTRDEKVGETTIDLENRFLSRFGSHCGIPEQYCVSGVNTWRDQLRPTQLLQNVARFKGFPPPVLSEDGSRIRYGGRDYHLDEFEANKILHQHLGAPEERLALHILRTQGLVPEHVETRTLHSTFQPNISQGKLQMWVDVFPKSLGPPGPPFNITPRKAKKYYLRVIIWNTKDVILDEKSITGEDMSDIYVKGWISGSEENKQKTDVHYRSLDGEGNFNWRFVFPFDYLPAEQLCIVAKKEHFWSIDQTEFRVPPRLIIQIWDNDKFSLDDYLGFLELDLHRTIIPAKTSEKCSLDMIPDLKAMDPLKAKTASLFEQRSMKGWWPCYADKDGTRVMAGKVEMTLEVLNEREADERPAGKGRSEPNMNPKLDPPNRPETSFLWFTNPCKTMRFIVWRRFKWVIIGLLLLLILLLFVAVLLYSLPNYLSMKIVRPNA

Experiments:
[1] = target: Recombinant dysferlin (transiently transfected in U2OS cells) (UniProt O75923); assay: co-IP; U2OS cells (endogenous myoferlin) transiently transfected with dysferlin cDNA; IP with HCAb F4 and H7; IP and non-bound fractions on western blot for dysferlin and myoferlin; wild-type and mock cells as controls
[2] = target: Dysferlin (endogenous; source of the IP not stated: IM2 myoblasts, IM2 myotubes or human skeletal muscle) (not stated (endogenous in mouse IM2 cells or human skeletal muscle)) (UniProt Q9ESD7); assay: co-IP; data not shown; western blot of dysferlin HCAb IP fractions; source of the samples not stated
[3] = target: T1, Vinculin (endogenous, mouse IM2 cells) (mouse (endogenous in IM2)) (UniProt Q64727); assay: co-IP; IM2 myotube lysate; IP with conventional antibodies against vinculin (IgG control against VSV); IP and non-bound fractions on western blot for dysferlin
T1 sequence: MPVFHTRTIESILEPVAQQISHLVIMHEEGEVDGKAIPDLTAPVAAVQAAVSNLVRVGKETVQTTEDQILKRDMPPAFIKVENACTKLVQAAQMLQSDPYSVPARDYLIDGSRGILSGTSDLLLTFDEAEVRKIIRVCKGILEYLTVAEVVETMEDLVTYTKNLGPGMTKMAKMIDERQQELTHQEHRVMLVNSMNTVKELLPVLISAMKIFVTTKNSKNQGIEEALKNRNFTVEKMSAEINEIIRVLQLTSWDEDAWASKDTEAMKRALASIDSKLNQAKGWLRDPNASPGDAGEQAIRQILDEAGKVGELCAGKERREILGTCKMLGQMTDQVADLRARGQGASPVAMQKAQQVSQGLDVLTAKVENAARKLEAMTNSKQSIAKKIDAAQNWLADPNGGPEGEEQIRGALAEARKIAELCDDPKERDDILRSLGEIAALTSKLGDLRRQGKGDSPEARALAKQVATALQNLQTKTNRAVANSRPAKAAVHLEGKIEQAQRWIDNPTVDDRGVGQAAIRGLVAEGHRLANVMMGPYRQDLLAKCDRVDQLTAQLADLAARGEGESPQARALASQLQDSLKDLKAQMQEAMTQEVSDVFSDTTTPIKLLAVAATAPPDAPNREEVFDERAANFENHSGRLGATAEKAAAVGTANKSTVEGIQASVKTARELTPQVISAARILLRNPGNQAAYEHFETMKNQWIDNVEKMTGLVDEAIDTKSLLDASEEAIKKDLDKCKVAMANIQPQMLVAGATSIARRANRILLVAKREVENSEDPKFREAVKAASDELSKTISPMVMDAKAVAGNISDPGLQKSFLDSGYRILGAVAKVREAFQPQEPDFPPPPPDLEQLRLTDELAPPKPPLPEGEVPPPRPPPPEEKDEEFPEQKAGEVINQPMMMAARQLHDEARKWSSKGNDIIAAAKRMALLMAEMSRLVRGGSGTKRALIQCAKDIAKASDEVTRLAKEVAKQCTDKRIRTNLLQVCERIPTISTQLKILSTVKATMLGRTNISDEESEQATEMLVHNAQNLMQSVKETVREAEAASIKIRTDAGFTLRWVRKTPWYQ

[4] = target: Dysferlin (endogenous; source of the IP not stated: IM2 myoblasts, IM2 myotubes or human skeletal muscle) (not stated (endogenous in mouse IM2 cells or human skeletal muscle)) (UniProt Q9ESD7); assay: co-IP; dysferlin IP samples (HCAb) probed on western blot (Figure S2); source of the samples (IM2 myoblasts, IM2 myotubes or human skeletal muscle) not stated
[5] = target: Dysferlin (endogenous, mouse IM2 myoblasts and myotubes) (mouse (endogenous in IM2)) (UniProt Q9ESD7); assay: co-IP; endogenous dysferlin immunoprecipitated with HCAb F4 or H7 (control HCAb 3A) and protein A Sepharose from IM2 myoblast and myotube lysates (Triton, CHAPS or SDS buffer); western blot of the IP fractions
[6] = target: Dysferlin (endogenous, mouse IM2 myoblasts and myotubes) (mouse (endogenous in IM2)) (UniProt Q9ESD7); assay: as above; remark: listed apart in the source

binding [1]: binds weakly
Molecule: Myoferlin (endogenous, U2OS cells) (from UniProt Q9NZM1 1-2061)

binding [2]: binds
Molecule: ANXA2 (endogenous; source not stated) (from UniProt P07356 1-339)

binding [3]: binds weakly
Molecule: Dysferlin (endogenous, mouse IM2 myoblasts and myotubes) (from UniProt Q9ESD7 1-2090)

binding [4]: binds
Molecule: AHNAK (endogenous; source of the IP samples not stated) (from UniProt E9Q616 1-5656)

binding [5]: binds
Molecule: Myoferlin (endogenous, mouse IM2 cells) (from UniProt Q69ZN7 1-2048)

binding [6]: binds
B1: Vinculin (endogenous, mouse IM2 cells) (protein, UniProt Q64727 1-1066)
chain: MPVFHTRTIESILEPVAQQISHLVIMHEEGEVDGKAIPDLTAPVAAVQAAVSNLVRVGKETVQTTEDQILKRDMPPAFIKVENACTKLVQAAQMLQSDPYSVPARDYLIDGSRGILSGTSDLLLTFDEAEVRKIIRVCKGILEYLTVAEVVETMEDLVTYTKNLGPGMTKMAKMIDERQQELTHQEHRVMLVNSMNTVKELLPVLISAMKIFVTTKNSKNQGIEEALKNRNFTVEKMSAEINEIIRVLQLTSWDEDAWASKDTEAMKRALASIDSKLNQAKGWLRDPNASPGDAGEQAIRQILDEAGKVGELCAGKERREILGTCKMLGQMTDQVADLRARGQGASPVAMQKAQQVSQGLDVLTAKVENAARKLEAMTNSKQSIAKKIDAAQNWLADPNGGPEGEEQIRGALAEARKIAELCDDPKERDDILRSLGEIAALTSKLGDLRRQGKGDSPEARALAKQVATALQNLQTKTNRAVANSRPAKAAVHLEGKIEQAQRWIDNPTVDDRGVGQAAIRGLVAEGHRLANVMMGPYRQDLLAKCDRVDQLTAQLADLAARGEGESPQARALASQLQDSLKDLKAQMQEAMTQEVSDVFSDTTTPIKLLAVAATAPPDAPNREEVFDERAANFENHSGRLGATAEKAAAVGTANKSTVEGIQASVKTARELTPQVISAARILLRNPGNQAAYEHFETMKNQWIDNVEKMTGLVDEAIDTKSLLDASEEAIKKDLDKCKVAMANIQPQMLVAGATSIARRANRILLVAKREVENSEDPKFREAVKAASDELSKTISPMVMDAKAVAGNISDPGLQKSFLDSGYRILGAVAKVREAFQPQEPDFPPPPPDLEQLRLTDELAPPKPPLPEGEVPPPRPPPPEEKDEEFPEQKAGEVINQPMMMAARQLHDEARKWSSKGNDIIAAAKRMALLMAEMSRLVRGGSGTKRALIQCAKDIAKASDEVTRLAKEVAKQCTDKRIRTNLLQVCERIPTISTQLKILSTVKATMLGRTNISDEESEQATEMLVHNAQNLMQSVKETVREAEAASIKIRTDAGFTLRWVRKTPWYQ

binding [6]: binds
B2: Calpain 3 (endogenous, mouse IM2 cells) (protein, UniProt Q64691 1-821)
chain: MPTVISPTVAPRTGAEPRSPGPVPHPAQGKTTEAGGGHPSGIYSAIISRNFPIIGVKEKTFEQLRRKCLEKKVLYLDPEFPPDETSLFYSQKFPIQFVWKRPPEICENPRFIIGGANRTDICQGDLGDCWFLAAIACLTLNERLLFRVIPHDQSFTENYAGIFHFQFWRYGDWVDVVIDDCLPTYNNQLVFTKSNHRNEFWSALLEKAYAKLHGSYEALKGGNTTEAMEDFTGGVTEFFEIKDAPSDMYKIMRKAIERGSLMGCSIDDGTNMTYGTSPSGLNMGELIARMVRNMDNSLLRDSDLDPRGSDDRPSRTIVPVQYETRMACGLVKGHAYSVTGLEEALFKGEKVKLVRLRNPWGQVEWNGSWSDGWKDWSFVDKDEKARLQHQVTEDGEFWMSYDDFVYHFTKLEICNLTADALESDKLQTWTVSVNEGRWVRGCSAGGCRNFPDTFWTNPQYRLKLLEEDDDPEDSEVICSFLVALMQKNRRKDRKLGANLFTIGFAIYEVPKEMHGNKQHLQKDFFLYNASKARSKTYINMREVSQRFRLPPSEYVIVPSTYEPHQEGEFILRVFSEKRNLSEEAENTISVDRPVKKKKNKPIIFVSDRANSNKELGVDQEAEEGKDKAGPEKRGETPQPRPGHTDQESEEQQQFRNIFRQIAGDDMEICADELKNVLNTVVNKHKDLKTQGFTLESCRSMIALMDTDGSGRLNLQEFHHLWKKIKAWQKIFKHYDTDHSGTINSYEMRNAVNDAGFHLNSQLYDIITMRYADKHMNIDFDSFICCFVRLEGMFRAFNAFDKDGDGIIKLNVLEWLQLTMYA

binding [4]: binds
B3: Calpain 3 (endogenous; source of the IP samples not stated) (protein, UniProt Q64691 1-821)
chain: MPTVISPTVAPRTGAEPRSPGPVPHPAQGKTTEAGGGHPSGIYSAIISRNFPIIGVKEKTFEQLRRKCLEKKVLYLDPEFPPDETSLFYSQKFPIQFVWKRPPEICENPRFIIGGANRTDICQGDLGDCWFLAAIACLTLNERLLFRVIPHDQSFTENYAGIFHFQFWRYGDWVDVVIDDCLPTYNNQLVFTKSNHRNEFWSALLEKAYAKLHGSYEALKGGNTTEAMEDFTGGVTEFFEIKDAPSDMYKIMRKAIERGSLMGCSIDDGTNMTYGTSPSGLNMGELIARMVRNMDNSLLRDSDLDPRGSDDRPSRTIVPVQYETRMACGLVKGHAYSVTGLEEALFKGEKVKLVRLRNPWGQVEWNGSWSDGWKDWSFVDKDEKARLQHQVTEDGEFWMSYDDFVYHFTKLEICNLTADALESDKLQTWTVSVNEGRWVRGCSAGGCRNFPDTFWTNPQYRLKLLEEDDDPEDSEVICSFLVALMQKNRRKDRKLGANLFTIGFAIYEVPKEMHGNKQHLQKDFFLYNASKARSKTYINMREVSQRFRLPPSEYVIVPSTYEPHQEGEFILRVFSEKRNLSEEAENTISVDRPVKKKKNKPIIFVSDRANSNKELGVDQEAEEGKDKAGPEKRGETPQPRPGHTDQESEEQQQFRNIFRQIAGDDMEICADELKNVLNTVVNKHKDLKTQGFTLESCRSMIALMDTDGSGRLNLQEFHHLWKKIKAWQKIFKHYDTDHSGTINSYEMRNAVNDAGFHLNSQLYDIITMRYADKHMNIDFDSFICCFVRLEGMFRAFNAFDKDGDGIIKLNVLEWLQLTMYA

binding [2]: binds
B4: PARVB (endogenous; source not stated) (protein, UniProt Q9ES46 1-365)
chain: MSSAPPRSPTPRAPKMKKDESFLGKLGGTLARKKKTREVTDLQEEGKSAINSPMAPALVDIHPEDTQLEENEERTMIDPTSREDPKFKELVKVLLDWINDVLAEERIIVKQLEEDLYDGQVLQKLLEKLAHCKLNVAEVTQSEIGQKQKLQTVLEAVQDLLRPHGWPLRWNVDSIHGKNLVAILHLLVSLAMHFRAPIHLPEHVTVQVVVVRKREGLLHSSHISEELTTTTEIMMGRFERDAFDTLFDHAPDKLNLVKKSLITFVNKHLNKLNLEVTDLETQFADGVYLVLLLGLLEDYFVPLHNFYLTPDSFDQKVHNVAFAFELMLDGGLKKPKARPEDVVNLDLKSTLRVLYTLFTKYKDVE
